Test results from publication PMC10484740.

What was measured:
[1] = target: PrA-tagged Bmc1 (S. pombe); experiment: co-IP; native protein extracts of a Bmc1 PrA pof8Δ strain re-expressing HA-tagged Pof8 mutants; Bmc1 PrA precipitated with rabbit IgG-conjugated Dynabeads; western blot with anti-HA
[2] = target: HA-tagged Bmc1 (wild type Bmc1-HA) (S. pombe); experiment: co-IP; native protein extracts of S. pombe expressing HA-tagged Bmc1 (wild type or L153A V155A) and myc-tagged Pof8; Protein A/G beads coated with anti-myc or anti-HA antibody, which of the two was precipitated is not stated; western blot
[3] = target: HA-tagged Bmc1 L153A V155A mutant (S. pombe); experiment: as above

| binding [1] | binding [2] | binding [3] | Binder |
| --- | --- | --- | --- |
| binds |  |  | HA-tagged Pof8 Lsm2-8-binding mutant (Δ2–10) (protein, UniProt O13795) MKIKAFTGKENNSIADGNNNKLKDEHYKHNEASKEPSHSISGGLMLNQQDRQLIEPLNPDFLSAVDSILEIYFHRERQKEKVHLAFLIQQDDFWKGIRPNPTQNNLKYALSYVTNALFHFDNSSHMVIRNENIVLPLDIPLYDRIIYVEPVPATLSNKSLLLAGKLRKYLKEFLPYVDAIGTPEGYAFVILYKKVDQSALSKLPVPPGWVLLTRKEWTNREEKYFENQLHLVKASSSDVSNSSNSFPENRYPKLTKVEKQMTKSVSKTSQTDKDEDNLDFTKNLLTRIKNLHPLTNKSTIHSLLSYVFSRQTQNIACEPMYIDYRKDETEAIIRWKTPLHAETCINAFRTQERKQNSHDDIRAHRKKGSSRPFLIAELITGEEEKNYWRMLKK |
|  | binds | binds | myc-tagged Pof8 (protein, UniProt O13795 1-402) MFVPRQLNVRKIKAFTGKENNSIADGNNNKLKDEHYKHNEASKEPSHSISGGLMLNQQDRQLIEPLNPDFLSAVDSILEIYFHRERQKEKVHLAFLIQQDDFWKGIRPNPTQNNLKYALSYVTNALFHFDNSSHMVIRNENIVLPLDIPLYDRIIYVEPVPATLSNKSLLLAGKLRKYLKEFLPYVDAIGTPEGYAFVILYKKVDQSALSKLPVPPGWVLLTRKEWTNREEKYFENQLHLVKASSSDVSNSSNSFPENRYPKLTKVEKQMTKSVSKTSQTDKDEDNLDFTKNLLTRIKNLHPLTNKSTIHSLLSYVFSRQTQNIACEPMYIDYRKDETEAIIRWKTPLHAETCINAFRTQERKQNSHDDIRAHRKKGSSRPFLIAELITGEEEKNYWRMLKK |

Results are given in words; binding and its absence hold for the method and conditions named. In cells and extracts the contact can be indirect. A result given as binding can be weak or reduced; the word gives no strength. Where a sequence is shown, tags or fusion partners need not be part of it.
